Test results taken from paper PMC11784221, “Platelet factor 4-derived C15 peptide broadly inhibits enteroviruses by disrupting viral attachment” (Journal of Virology, 2025).
Substitutions are numbered along the chain they refer to. Results are given in words; binding and its absence hold for the method and conditions named. Binding seen in cells or lysates may run through a third protein. For some of these results: Binding can be weak; no strength is given. Sequences can lack the tags named with a protein.

Tests used:
Assay in all cases: co-IP
[1] = molecular target: T1, PF4-Myc C15 K to A mutant (UniProt P02776)
T1 sequence: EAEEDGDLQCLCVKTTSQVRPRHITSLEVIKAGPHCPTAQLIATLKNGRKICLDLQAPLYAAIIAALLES

[2] = molecular target: T2, PF4-Myc C15 K to M mutant (UniProt P02776)
T2 sequence: T1 sequence with A61M, A62M, A65M, A66M

[3] = molecular target: T3, PF4-ΔC15-Myc (PF4 lacking the C-terminal 15 amino acids) (UniProt P02776)
T3 sequence: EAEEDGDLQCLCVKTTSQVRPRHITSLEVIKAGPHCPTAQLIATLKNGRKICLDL

[4] = molecular target: T4, PF4-Myc (wild-type platelet factor 4 with a Myc tag) (UniProt P02776)
T4 sequence: T1 sequence with A61K, A62K, A65K, A66K

[5] = molecular target: T5, GFP-C15 (C15 of PF4 fused to GFP)
T5 sequence: QAPLYKKIIKKLLES

## CA6-VP3-HA (VP3 capsid protein of coxsackievirus A6)
[1]
  binding: no binding
[2]
  binding: no binding
[3]
  binding: no binding
[4]
  binding: binds
[5]
  binding: binds

## EVD68-VP3-HA (VP3 capsid protein of enterovirus D68)
[1]
  binding: no binding
[2]
  binding: no binding
[3]
  binding: no binding
[4]
  binding: binds
[5]
  binding: binds
